Data as given in PubChem BioAssay AID743454 (Peter MacCallum Cancer Centre, 2014)
Here is an unselected part of about 18,000 deposited reagents. In the full data, 450 (2.5%) were called active. 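Single biological run; no consistent viability z cut-off exists, so the class columns, not z-scores, define the calls.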 Unmarked entries are inactive.

Screen: 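Knock-downs lowering viability or raising caspase 3/7 activity in vorinostat-treated resistant cells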 (primary screen)
System: human HCT116-VR colon cancer cells, selected for vorinostat resistance
Reagent: siRNA pool against human genes, 40 nM siRNA pool
Duration: vorinostat for 24 h, read-out about 72 h after transfection
Treatment: vorinostat at 2.5 µM final
Read-out: 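Cell viability by CellTiter-Fluor and caspase 3/7 activity by luminescence, each scaled to mock wells per plate, duplicates averaged, then robust z-scored over all plates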
Reading the numbers: viability robust z-score: higher = more viable cells than screen typical; caspase robust z-score: higher = more caspase 3/7 activity than screen typical
Hit rule: 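Hits are knock-downs in viability class RV1/RV2 or caspase class CA1/CA2, excluding ones that killed cells in the no-drug cell-count arm; hits then retested with single siRNAs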

Gene	PubChem SID	viability hit class	caspase hit class	viability robust z-score	caspase robust z-score
FADD	SID135620739	no change	no change	2.23	-0.17
SLC2A12	SID135621397	no change	no change	-0.21	-0.43
C3orf36	SID134318689	no change	no change	-0.84	1.48
TIMM22	SID135621201	no change	no change	-0.46	-0.82
SHH	SID134311458	no change	no change	-0.82	-1.17
CPS1	SID134314039	no change	no change	1.21	0.71
IPO9	SID152148483	no change	no change	0.38	-1.32
ADAM22	SID135621732	no change	no change	1.3	0.16
OARD1	SID134319904	no change	no change	-1.62	-1.19
RSPH3	SID134322572	no change	no change	-0.36	0.96
POLA2	SID134320039	no change	no change	-1.2	-0.03
GABRG3	SID152152605	no change	no change	0.01	1.12
TARBP2	SID152155281	no change	no change	1.82	0.96
SSX2	SID134321193	no change	no change	-1.27	-1.42
ANKRD23	SID152148407	no change	no change	-2.25	0.3
OVCH2	SID135625031	no change	no change	-0.06	-0.56
MAP3K19	SID135620896	no change	no change	-1.54	-0.88
SS18L2	SID152152123	no change	no change	-3.17	5.77
PLEKHA3	SID152148551	no change	no change	1.45	0.08
PREB	SID134321576	no change	no change	0.84	-0.88
HDC	SID152153257	no change	no change	-0.76	0.68
METTL23	SID135625214	no change	no change	-0.4	-0.63
PAOX	SID135621574	no change	no change	-0.52	0.52
NALF1	SID135625573	no change	no change	0.45	-0.46
MRAP2	SID152147635	no change	no change	-0.24	-0.43
EPPIN	SID134317427	no change	no change	0.18	-0.3
TERB2	SID152156417	no change	no change	0.82	1.08
SLCO1C1	SID152146916	no change	no change	0.18	-0.49
SPOCK2	SID152152978	no change	no change	-0.12	0.54
RTL8C	SID152149567	no change	no change	0.32	0.84
ALDH3B2	SID135621507	no change	no change	0.71	-0.61
CNGA2	SID134329422	no change	no change	1.5	-0.62
TAGAP	SID135621626	no change	no change	-2.28	2.53
SURF1	SID134316104	no change	no change	-0.82	1.49
PIGP	SID152151451	no change	no change	0.01	1.33
SIGLEC10	SID135623468	no change	no change	0.48	2.11
CT47A8	SID135625657	no change	no change	-0.44	1.98
CSDC2	SID152151116	no change (active)	CA2 (caspase activation)	-0.46	5.25
NGFR	SID135621752	no change	no change	1.58	0.59
METTL26	SID135623256	no change	no change	-0.55	-0.12
PLPPR1	SID134324399	no change	no change	-0.2	-0.99
HDAC4	SID135620689	no change	no change	0.36	1.04
RPS3	SID152146996	no change	no change	-4.83	-1.92
RTN2	SID134316977	no change	no change	0.08	-0.29
CHMP1A	SID135621927	no change	no change	1.06	-0.52
CLN5	SID134323897	no change	no change	0.23	1.43
ZNF586	SID152151636	no change	no change	-1.23	0.33
BNIP2	SID134316131	no change (active)	CA1 (caspase activation)	0.8	6.72
ONECUT3	SID152153354	no change	no change	-0.69	-0.69
ASF1B	SID152152399	no change	no change	-0.46	-0.67
TES	SID134317266	no change	no change	-1.12	-0.84
UGT1A10	SID134317973	no change	no change	-0.5	-0.74
HAPLN4	SID135625030	no change	no change	-0.44	3.48
SPATA18	SID152149355	no change	no change	0.8	-0.58
IFT57	SID134319412	no change	no change	0.6	-0.74
ZNF846	SID152150356	no change	no change	1.5	0.43
NPHS2	SID134324804	no change	no change	-0.04	0.94

Records above whose gene name begins with M or m:
Gene	PubChem SID	viability hit class	caspase hit class	viability robust z-score	caspase robust z-score
MAP3K19	SID135620896	no change	no change	-1.54	-0.88
METTL23	SID135625214	no change	no change	-0.4	-0.63
MRAP2	SID152147635	no change	no change	-0.24	-0.43
METTL26	SID135623256	no change	no change	-0.55	-0.12
